{"source": "patent US4341768A", "about": "“Antibiotic compounds” (priority 1981, dated 1982)", "key": {"K. pneumoniae A9977": {"tested_on": "K. pneumoniae A9977", "experiment": "In vivo antibacterial activity, experimental infection of mice", "details": "ip challenge 100 LD50 K. pneumoniae A9977 in 5% hog gastric mucin, im immediately after challenge, observed 5 days"}, "[1]": {"tested_on": "Bacillus anthracis IID-115", "type": "cell-based"}, "[2]": {"tested_on": "gram-positive and gram-negative bacteria", "experiment": "In vitro antibacterial testing, overall spectrum", "type": "cell-based", "details": "organisms tested"}, "E. coli Juhl": {"tested_on": "E. coli Juhl", "experiment": "In vivo antibacterial activity, experimental infection of mice", "details": "ip challenge 100 LD50 E. coli Juhl in 5% hog gastric mucin, im immediately after challenge, observed 5 days"}, "P. aeruginosa A9843": {"tested_on": "P. aeruginosa A9843", "experiment": "In vivo antibacterial activity, experimental infection of mice", "details": "ip challenge 100 LD50 P. aeruginosa A9843 in 5% hog gastric mucin, im immediately after challenge, observed 5 days"}, "Salmonella typhosa A9498": {"tested_on": "Salmonella typhosa A9498", "experiment": "MIC, two-fold serial dilution, Mueller-Hinton agar", "type": "cell-based", "details": "overnight 37° C."}, "Shigella sonnei Yale": {"tested_on": "Shigella sonnei Yale", "experiment": "MIC, two-fold serial dilution, Mueller-Hinton agar", "type": "cell-based", "details": "overnight 37° C."}, "Escherichia coli Juhl": {"tested_on": "Escherichia coli Juhl", "experiment": "MIC, two-fold serial dilution, Mueller-Hinton agar", "type": "cell-based", "details": "overnight 37° C."}, "Proteus vulgalis A9526": {"tested_on": "Proteus vulgalis A9526", "experiment": "MIC, two-fold serial dilution, Mueller-Hinton agar", "type": "cell-based", "details": "overnight 37° C."}, "[3]": {"tested_on": "Klebsiella pneumoniae D-11", "experiment": "MIC, two-fold serial dilution, Mueller-Hinton agar", "type": "cell-based", "details": "overnight 37° C."}, "[4]": {"tested_on": "Pseudomonas aeruginosa A15150", "experiment": "MIC, activity against Pseudomonas species", "type": "cell-based"}, "[5]": {"tested_on": "Pseudomonas maltophilia A21550", "experiment": "MIC, activity against Pseudomonas species", "type": "cell-based"}, "[6]": {"tested_on": "Pseudomonas putida AKH-15", "experiment": "MIC, activity against Pseudomonas species", "type": "cell-based"}, "Escherichia coli NIHJ": {"tested_on": "Escherichia coli NIHJ", "experiment": "MIC, two-fold serial dilution, Mueller-Hinton agar", "type": "cell-based", "details": "overnight 37° C."}, "[7]": {"tested_on": "Pseudomonas aeruginosa GN 4925", "experiment": "MIC, activity against Pseudomonas species", "type": "cell-based"}, "[8]": {"tested_on": "Staphylococcus aureus 209P", "experiment": "MIC, two-fold serial dilution, Mueller-Hinton agar", "type": "cell-based", "details": "overnight 37° C."}, "[9]": {"tested_on": "Pseudomonas aeruginosa A21428", "experiment": "MIC, activity against Pseudomonas species", "type": "cell-based"}, "Sarcina lutea #1001": {"tested_on": "Sarcina lutea #1001", "experiment": "MIC, two-fold serial dilution, Mueller-Hinton agar", "type": "cell-based", "details": "overnight 37° C."}, "[10]": {"tested_on": "Enterobacter cloacae A9654", "experiment": "MIC, two-fold serial dilution, Mueller-Hinton agar", "type": "cell-based", "details": "overnight 37° C."}, "[11]": {"tested_on": "Pseudomonas cepacia SCH-15", "experiment": "MIC, activity against Pseudomonas species", "type": "cell-based"}, "[12]": {"tested_on": "Pseudomonas maltophilia AKH-81", "experiment": "MIC, activity against Pseudomonas species", "type": "cell-based"}, "[13]": {"tested_on": "Pseudomonas aeruginosa D15", "experiment": "MIC, activity against Pseudomonas species", "type": "cell-based"}, "Proteus mirabilis A9554": {"tested_on": "Proteus mirabilis A9554", "experiment": "MIC, two-fold serial dilution, Mueller-Hinton agar", "type": "cell-based", "details": "overnight 37° C."}, "[14]": {"tested_on": "Pseudomonas aeruginosa A15194", "experiment": "MIC, activity against Pseudomonas species", "type": "cell-based"}, "[15]": {"tested_on": "Pseudomonas melanogenum A20817", "experiment": "MIC, activity against Pseudomonas species", "type": "cell-based"}, "[16]": {"tested_on": "Streptococcus faecalis B402-3", "experiment": "MIC, two-fold serial dilution, Mueller-Hinton agar", "type": "cell-based", "details": "overnight 37° C."}, "Pseudomonas species": {"tested_on": "Pseudomonas species", "experiment": "In vitro activity against Pseudomonas species, summary", "type": "cell-based", "details": "P. aeruginosa, P. cepacia, P. maltophilia, P. melanogenum, P. putida"}, "[17]": {"tested_on": "Salmonella enteritidis #4432", "experiment": "MIC, two-fold serial dilution, Mueller-Hinton agar", "type": "cell-based", "details": "overnight 37° C."}, "[18]": {"tested_on": "Bacillus subtilis PCI 219", "experiment": "MIC, two-fold serial dilution, Mueller-Hinton agar", "type": "cell-based", "details": "overnight 37° C."}, "Proteus species": {"tested_on": "Proteus species", "experiment": "In vitro antibacterial testing, Proteus species", "type": "cell-based"}, "[19]": {"tested_on": "Pseudomonas putida AKH-66", "experiment": "MIC, activity against Pseudomonas species", "type": "cell-based"}, "[20]": {"tested_on": "Pseudomonas maltophilia AKH-36", "experiment": "MIC, activity against Pseudomonas species", "type": "cell-based"}, "Proteus morganii A9553": {"tested_on": "Proteus morganii A9553", "experiment": "MIC, two-fold serial dilution, Mueller-Hinton agar", "type": "cell-based", "details": "overnight 37° C."}, "[21]": {"tested_on": "Pseudomonas maltophilia A20620", "experiment": "MIC, activity against Pseudomonas species", "type": "cell-based"}, "[22]": {"tested_on": "Pseudomonas putida KUH-11", "experiment": "MIC, activity against Pseudomonas species", "type": "cell-based"}, "[23]": {"tested_on": "Shigella dysenteriae D-163", "experiment": "MIC, two-fold serial dilution, Mueller-Hinton agar", "type": "cell-based", "details": "overnight 37° C."}, "Micrococcus flavus D-12": {"tested_on": "Micrococcus flavus D-12", "experiment": "MIC, two-fold serial dilution, Mueller-Hinton agar", "type": "cell-based", "details": "overnight 37° C."}, "[24]": {"tested_on": "Staphylococcus aureus Smith", "experiment": "MIC, two-fold serial dilution, Mueller-Hinton agar", "type": "cell-based", "details": "overnight 37° C."}, "[25]": {"tested_on": "Pseudomonas maltophilia A21384", "experiment": "MIC, activity against Pseudomonas species", "type": "cell-based"}}, "note": "Like-named read-outs stand apart in the source and are kept apart here. Not every detail of the peptide structures is certain; ends, links or a residue may be inferred. Bridge positions count the residues as written; N and C are the ends. Square brackets hold non-standard residues; d marks the D form. Peptide text beside a SMILES is read from it. * marks the point of attachment. X1 = CCC(C)CCCCC(O)CC(=O)*; dDab = NCC[C@@H](N)C(=O)O; Dab = NCC[C@H](N)C(=O)O", "data": [{"smiles": "CC(C)C[C@@H]1NC(=O)[C@H](CCN)NC(=O)[C@H](CCN)NC(=O)[C@H](CC(C)C)NC(=O)[C@@H](Cc2ccccc2)NC(=O)[C@H](CCN)NC(=O)[C@@H](NC(=O)[C@H](N)CCN)CCNC1=O", "note": "[Bu-2470A] (H-[dDab][Dab][Dab][dF]L[Dab][Dab]L; lactam 2-C)", "values": [{"measurement": "PD50", "setting": "K. pneumoniae A9977", "value": 25, "unit": "mg/kg"}, {"measurement": "MIC", "setting": "[1]; Bacillus anthracis IID-115, Mueller-Hinton agar, overnight 37° C.", "value": 100, "unit": "µg/mL"}, {"measurement": "In vitro antibacterial activity, overall", "setting": "[2]", "value": "generally less active than components B1 and B2"}, {"measurement": "PD50", "setting": "E. coli Juhl", "value": 7.6, "unit": "mg/kg"}, {"measurement": "PD50", "setting": "P. aeruginosa A9843", "value": 25, "unit": "mg/kg"}, {"measurement": "MIC", "setting": "Salmonella typhosa A9498", "value": 6.3, "unit": "µg/mL"}, {"measurement": "MIC", "setting": "Shigella sonnei Yale", "value": 25, "unit": "µg/mL"}]}, {"smiles": "CCC(C)CCCCC(O)CC(=O)N[C@H](CCN)C(=O)N[C@H]1CCNC(=O)[C@H](CC(C)C)NC(=O)[C@H](CCN)NC(=O)[C@H](CCN)NC(=O)[C@H](CC(C)C)NC(=O)[C@@H](Cc2ccccc2)NC(=O)[C@H](CCN)NC1=O", "note": "(stereo partly shown) [Bu-2470B1] (X1-[dDab][Dab][Dab][dF]L[Dab][Dab]L; lactam 2-C)", "values": [{"measurement": "MIC", "setting": "Escherichia coli Juhl", "value": 6.3, "unit": "µg/mL"}, {"measurement": "MIC", "setting": "Proteus vulgalis A9526", "value": "> 100", "unit": "µg/mL"}, {"measurement": "MIC", "setting": "[3]", "value": 6.3, "unit": "µg/mL"}, {"measurement": "MIC", "setting": "[4]", "value": 12.5, "unit": "µg/mL"}, {"measurement": "MIC", "setting": "[5]", "value": 3.1, "unit": "µg/mL"}, {"measurement": "PD50", "setting": "K. pneumoniae A9977", "value": 43, "unit": "mg/kg"}, {"measurement": "MIC", "setting": "[6]", "value": 6.3, "unit": "µg/mL"}, {"measurement": "MIC", "setting": "Escherichia coli NIHJ", "value": 3.1, "unit": "µg/mL"}, {"measurement": "MIC", "setting": "[7]", "value": 12.5, "unit": "µg/mL"}, {"measurement": "MIC", "setting": "[8]", "value": 12.5, "unit": "µg/mL"}, {"measurement": "MIC", "setting": "[9]", "value": 12.5, "unit": "µg/mL"}, {"measurement": "MIC", "setting": "Sarcina lutea #1001", "value": 3.1, "unit": "µg/mL"}, {"measurement": "MIC", "setting": "[10]", "value": 25, "unit": "µg/mL"}, {"measurement": "MIC", "setting": "[1]", "value": 6.3}, {"measurement": "MIC", "setting": "[11]", "value": 6.3, "unit": "µg/mL"}, {"measurement": "MIC", "setting": "[12]", "value": 1.6, "unit": "µg/mL"}, {"measurement": "MIC", "setting": "[13]", "value": 12.5, "unit": "µg/mL"}, {"measurement": "MIC", "setting": "Proteus mirabilis A9554", "value": "> 100", "unit": "µg/mL"}, {"measurement": "In vitro antibacterial activity, overall", "setting": "[2]", "value": "broad antibiotic activity"}, {"measurement": "MIC", "setting": "[14]", "value": 6.3, "unit": "µg/mL"}, {"measurement": "MIC", "setting": "[15]", "value": 3.1, "unit": "µg/mL"}, {"measurement": "MIC", "setting": "[16]", "value": 3.1, "unit": "µg/mL"}, {"measurement": "PD50", "setting": "E. coli Juhl", "value": 50, "unit": "mg/kg"}, {"measurement": "PD50", "setting": "P. aeruginosa A9843", "value": 100, "unit": "mg/kg"}, {"measurement": "Activity against various Pseudomonas species", "setting": "Pseudomonas species", "value": "active"}, {"measurement": "MIC", "setting": "[17]", "value": 6.3, "unit": "µg/mL"}, {"measurement": "MIC", "setting": "[18]", "value": 3.1, "unit": "µg/mL"}, {"measurement": "MIC", "setting": "Salmonella typhosa A9498", "value": 6.3, "unit": "µg/mL"}, {"measurement": "Inhibition of Proteus species", "setting": "Proteus species", "value": "did not inhibit"}, {"measurement": "MIC", "setting": "[19]", "value": 6.3, "unit": "µg/mL"}, {"measurement": "MIC", "setting": "[20]", "value": 0.8, "unit": "µg/mL"}, {"measurement": "MIC", "setting": "Shigella sonnei Yale", "value": 3.1, "unit": "µg/mL"}, {"measurement": "MIC", "setting": "Proteus morganii A9553", "value": "> 100", "unit": "µg/mL"}, {"measurement": "MIC", "setting": "[21]", "value": 6.3, "unit": "µg/mL"}, {"measurement": "MIC", "setting": "[22]", "value": 6.3, "unit": "µg/mL"}, {"measurement": "MIC", "setting": "[23]", "value": 3.1, "unit": "µg/mL"}, {"measurement": "MIC", "setting": "Micrococcus flavus D-12", "value": 3.1, "unit": "µg/mL"}, {"measurement": "MIC", "setting": "[24]", "value": 12.5, "unit": "µg/mL"}, {"measurement": "MIC", "setting": "[25]", "value": 1.6, "unit": "µg/mL"}]}]}
